Measurements as given in paper PMC7851937.
No constants are given. Whether binding was seen depends on the method and setting. Binding seen in cells or lysates may run through a third protein. Here binding means that the protein was enriched with, or labelled near, the bait; the list need not be complete.

Amino acid sequences for entries named in this document (tags omitted).
UniProt Q86TM6: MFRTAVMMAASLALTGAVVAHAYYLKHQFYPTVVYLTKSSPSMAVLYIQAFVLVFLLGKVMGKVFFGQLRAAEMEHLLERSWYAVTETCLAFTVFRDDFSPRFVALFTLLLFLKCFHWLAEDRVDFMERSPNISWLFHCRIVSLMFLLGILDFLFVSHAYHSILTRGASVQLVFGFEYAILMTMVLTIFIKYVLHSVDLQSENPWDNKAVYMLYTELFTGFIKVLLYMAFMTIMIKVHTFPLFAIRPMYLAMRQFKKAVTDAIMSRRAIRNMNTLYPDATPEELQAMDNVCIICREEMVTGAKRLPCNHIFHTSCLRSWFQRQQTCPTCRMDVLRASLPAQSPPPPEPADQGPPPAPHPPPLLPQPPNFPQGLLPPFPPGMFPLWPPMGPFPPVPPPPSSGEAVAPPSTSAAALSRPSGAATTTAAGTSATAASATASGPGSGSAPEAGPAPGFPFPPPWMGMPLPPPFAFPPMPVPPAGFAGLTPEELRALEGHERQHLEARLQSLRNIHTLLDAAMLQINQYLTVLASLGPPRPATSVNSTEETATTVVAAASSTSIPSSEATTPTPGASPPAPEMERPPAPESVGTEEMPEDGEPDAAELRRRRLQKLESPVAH
UniProt P08670: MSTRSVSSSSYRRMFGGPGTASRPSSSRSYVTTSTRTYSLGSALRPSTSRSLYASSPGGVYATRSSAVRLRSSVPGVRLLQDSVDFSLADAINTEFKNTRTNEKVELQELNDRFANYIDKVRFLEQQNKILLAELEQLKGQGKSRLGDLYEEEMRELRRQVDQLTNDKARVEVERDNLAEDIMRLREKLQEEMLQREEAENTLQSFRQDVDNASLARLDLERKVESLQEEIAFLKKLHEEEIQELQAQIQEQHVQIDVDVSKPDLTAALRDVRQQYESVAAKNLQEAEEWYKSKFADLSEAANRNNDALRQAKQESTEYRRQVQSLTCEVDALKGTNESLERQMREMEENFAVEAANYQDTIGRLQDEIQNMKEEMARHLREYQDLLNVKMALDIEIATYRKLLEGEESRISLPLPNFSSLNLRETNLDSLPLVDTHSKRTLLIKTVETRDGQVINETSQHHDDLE

Target: HRD1 stably overexpressed in MDA-MB-231 cells (human) (UniProt Q86TM6)
Experiment: affinity purification with mass spectrometry; IP with anti-HRD1 (rabbit normal IgG as control) overnight at 4 °C from NP-40 lysates of MDA-MB-231 cells stably overexpressing HRD1, MG132 10 μM for 6 h; SDS-PAGE, LC-MS, iBAQ

- binding: binds
Substance: Vimentin (endogenous, MDA-MB-231) (from UniProt P08670 1-466)
